In patent USRE42748E1, “Oral DTPA for radionuclide chelation” (priority 2006, dated 2011):

Tested on: iron-loaded dogs
Assay: Excretion of iron after repeat dose administration of DTPA in iron-loaded dogs
Format: in vivo, beagle dogs
Experimental: The objective of this study was to evaluate the efficacy of an oral formulation of DTPA to enhance the excretion of iron in urine from iron-loaded dogs. Iron-loaded dogs were used in the study as a surrogate model for contamination by transuranic elements.
Two treatment groups, consisting of one male and one female dog, were compared. Ca-DTPA in sterile saline was administered by the intravenous route, 10 mg/kg, on Day 1, followed by 4 days of treatment with Zn-DTPA (10 mg/kg daily). The oral treatment group was also administered 10 mg/kg in 20% Labrasol® in capsules, with Ca-DTPA on Day 1 and Zn-DTPA on Days 2-5. Blood was collected from each dog at the following time points: predose and 1, 4, 8, and 24 hr after dose administration on Day 1, and at 24 hr postdose on Days 2-5. Dogs were maintained in metabolism cages for the study, and urine was collected at 4, 8, and 24 hr after the Day 1 dose, and every 24 hr after the Day 2-5 doses. Collected samples were analyzed for iron, calcium, and zinc by Perkin-Elmer ICP (Inductively Coupled Plasma) unit.

[1] = plasma, IV and oral groups, Days 1-5

O=C([O-])CN(CCN(CC(=O)[O-])CC(=O)[O-])CCN(CC(=O)[O-])CC(=O)[O-].[Ca+2].[Na+].[Na+].[Na+] [Ca-DTPA, calcium diethylenetriaminepentaacetate]
Ca levels in the urine, correlation with administration (urine, Ca-DTPA on Day 1): did not show a correlation

O=C(O)CN(CCN(CC(=O)O)CC(=O)O)CCN(CC(=O)O)CC(=O)O [DTPA]
Zn in plasma samples [1]: not detected
plasma Ca and Fe, relation to treatment [1]: did not show any trend that appeared to be related to treatment

O=C([O-])CN(CCN(CC(=O)[O-])CC(=O)[O-])CCN(CC(=O)[O-])CC(=O)[O-].[Na+].[Na+].[Na+].[Zn+2] [Zn-DTPA, zinc diethylenetriaminepentaacetate]
Excretion of Zn in the urine, correlation with administration (urine, Zn-DTPA on study Days 2-5): did not seem to be correlated
